Test results published in patent publication US20110045100A1, “Antimalarial Quinolines and Methods of Use Thereof” (GEORGETOWN UNIVERSITY, priority 2008, published 2011).

System: hemin chloride (heme)
Assay: T1 measurements of the CQ protons with hemin chloride
Type: binding

For `CCN(CC)CCCC(C)Nc1ccnc2cc(Cl)ccc12` (centres unmarked) [CQ, chloroquine, reference compound], the “T1 for CQ proton 1” value (10 mM CQ and 2 mM hemin chloride in 40% DMSO at pH 5.0) was 0.70 s and the “T1 for CQ proton 1” value (pH 7.0) was 0.039 s.
